Results from publication PMC11968394, “The effect of deuterated PLK1 inhibitor on its safety and efficacy in vivo” (Frontiers in Oncology, 2025).

Experiment: Caco-2 permeability assay
Assay type: in vitro ADME
Conditions: human
Experimental: Caco-2 cells were cultured in 10% FBS DMEM for 14-21 days before assays. […] HBSS was added to the opposite chamber. After 2 hours incubation at 37°C, samples were analyzed by LC-MS/MS. Fluorescein leakage was tested by adding 100 μM fluorescein to the upper chamber and measuring fluorescence after 30 minutes.

C[C@H]1O[C@@H](O[C@H]2[C@@H](O)C[C@H](O[C@H]3[C@@H](O)C[C@H](O[C@H]4CC[C@@]5(C)[C@H](CC[C@@H]6[C@@H]5C[C@@H](O)[C@]5(C)[C@@H](C7=CC(=O)OC7)CC[C@]65O)C4)O[C@@H]3C)O[C@@H]2C)C[C@H](O)[C@@H]1O [Digoxin]
efflux ratio at 2 h, 5 μM: 27.8
